{
  "source": "paper PMC7845594",
  "about": "“Novel Immune Modulators Enhance Caenorhabditis elegans Resistance to Multiple Pathogens” (mSphere, 2021)",
  "test_system": "C. elegans transcriptome",
  "assay": "Transcriptome profiling (Affymetrix microarrays), differentially expressed genes",
  "type": "in vivo, Caenorhabditis elegans",
  "details": "downregulated genes",
  "protocol": "To gain additional insight into the effect of LK molecules on C. elegans, young-adult, wild-type worms were treated with each drug at 100 µM for 8 h in the absence of pathogen. RNA was collected, and transcriptome profiling was performed.\nData were determined using Affymetrix microarrays, as described in Materials and Methods. Download Table S3, XLSX file, 0.07 MB.\nTranscriptome profiling was performed on ∼6,000 wild-type, young adult worms incubated with either LK molecules or DMSO for 8 h. RNA isolation was performed using TRIzol extraction, followed by cleanup using RNeasy columns according to the manufacturer’s protocol. Each condition was analyzed in triplicate. Microarray data have been deposited in the GEO database, accession number GSE137516. […] Clustering and generation of the heat map was performed using Cluster 3.0 ([98]) and Treeview ([99]), respectively. Fold change of genes were normalized to average fold change of that gene over all clustered conditions. Genes and conditions were clustered using Euclidean distance and average linkages. […] Microarray data for non-LK molecules were collected from GEO omnibus. WormEXP was used as a secondary method for confirming statistical significance of potential pathways stimulated by each of the LK molecules ([100]). Gene ontologies were generated using DAVID ([101], [102]).",
  "note": "Further values from the same series stand in other lists.",
  "data": [
    {"compound": "CN(C)/N=N/c1ccc(-c2cn(Cc3ccccc3)cn2)cc1", "note": "[LK38]", "values": [
      {"measurement": "Fold Change", "setting": "Affy_ID 171811_s_at, listed under genes K01D12.7 (LK34, LK38), C57047 (LK35), K01D12.15 (LK38)", "value": 0.3018},
      {"measurement": "Fold Change", "setting": "Affy_ID 192118_s_at, listed under gene F10C1.7 (LK34, LK35) or F10C1.8 (LK38)", "value": 0.3484},
      {"measurement": "Fold Change", "setting": "Affy_ID 194255_x_at, listed under gene F22A3.6 (LK34, LK35) or C68743 (LK38)", "value": 0.483},
      {"measurement": "Fold Change", "setting": "Gene B0035.13, Affy_ID 188123_at", "value": 0.2972},
      {"measurement": "Fold Change", "setting": "Gene B0218.1, Affy_ID 188358_at", "value": 0.1938},
      {"measurement": "Fold Change", "setting": "Gene B0228.7, Affy_ID 187261_s_at", "value": 0.491},
      {"measurement": "Fold Change", "setting": "Gene B0379.1, Affy_ID 179086_s_at", "value": 0.3504},
      {"measurement": "Fold Change", "setting": "Gene B0507.8, Affy_ID 180569_at", "value": 0.339},
      {"measurement": "Fold Change", "setting": "Gene C04G2.4, Affy_ID 172853_x_at", "value": 0.2605},
      {"measurement": "Fold Change", "setting": "Gene C05C10.4, Affy_ID 189921_at", "value": 0.1668},
      {"measurement": "Fold Change", "setting": "Gene C14C6.2, Affy_ID 183567_s_at", "value": 0.2228},
      {"measurement": "Fold Change", "setting": "Gene C17B7.2, Affy_ID 181325_s_at", "value": 0.3145},
      {"measurement": "Fold Change", "setting": "Gene C24D10.7, Affy_ID 172569_x_at", "value": 0.172},
      {"measurement": "Fold Change", "setting": "Gene C24D10.8, Affy_ID 172527_x_at", "value": 0.2487},
      {"measurement": "Fold Change", "setting": "Gene C27F2.4, Affy_ID 189651_s_at", "value": 0.4446},
      {"measurement": "Fold Change", "setting": "Gene C27H5.4, Affy_ID 181334_s_at", "value": 0.423},
      {"measurement": "Fold Change", "setting": "Gene C29F4.2, Affy_ID 190884_at", "value": 0.3468},
      {"measurement": "Fold Change", "setting": "Gene C33F10.9, Affy_ID 172834_x_at", "value": 0.2643},
      {"measurement": "Fold Change", "setting": "Gene C34F11.4, Affy_ID 172885_x_at", "value": 0.2545},
      {"measurement": "Fold Change", "setting": "Gene C34F11.6, Affy_ID 172896_x_at", "value": 0.2433},
      {"measurement": "Fold Change", "setting": "Gene C35D10.11, Affy_ID 172630_x_at", "value": 0.1527},
      {"measurement": "Fold Change", "setting": "Gene CTEL54X.1, Affy_ID 185910_at", "value": 0.3164},
      {"measurement": "Fold Change", "setting": "Gene D1086.2, Affy_ID 177478_at", "value": 0.2424},
      {"measurement": "Fold Change", "setting": "Gene D2089.3, Affy_ID 178891_at", "value": 0.4379},
      {"measurement": "Fold Change", "setting": "Gene F07A11.5, Affy_ID 188623_at", "value": 0.4158},
      {"measurement": "Fold Change", "setting": "Gene F08G2.1, Affy_ID 192280_s_at", "value": 0.3636},
      {"measurement": "Fold Change", "setting": "Gene F08G2.2, Affy_ID 172835_x_at", "value": 0.4439},
      {"measurement": "Fold Change", "setting": "Gene F08G2.3, Affy_ID 172899_x_at", "value": 0.43},
      {"measurement": "Fold Change", "setting": "Gene F08H9.8, Affy_ID 189993_at", "value": 0.3038},
      {"measurement": "Fold Change", "setting": "Gene F09C12.7, Affy_ID 172687_x_at", "value": 0.2661},
      {"measurement": "Fold Change", "setting": "Gene F11E6.3, Affy_ID 179439_s_at", "value": 0.3909},
      {"measurement": "Fold Change", "setting": "Gene F11G11.8, Affy_ID 172546_x_at", "value": 0.3982},
      {"measurement": "Fold Change", "setting": "Gene F13B6.3, Affy_ID 180766_at", "value": 0.1106},
      {"measurement": "Fold Change", "setting": "Gene F17C11.2, Affy_ID 181257_at", "value": 0.3801},
      {"measurement": "Fold Change", "setting": "Gene F17C11.4, Affy_ID 180312_at", "value": 0.2469},
      {"measurement": "Fold Change", "setting": "Gene F20A1.1, Affy_ID 172426_x_at", "value": 0.4806},
      {"measurement": "Fold Change", "setting": "Gene F20D6.5, Affy_ID 182519_at", "value": 0.1285},
      {"measurement": "Fold Change", "setting": "Gene F23B2.11, Affy_ID 191274_s_at", "value": 0.3249},
      {"measurement": "Fold Change", "setting": "Gene F26A3.4, Affy_ID 191521_s_at", "value": 0.273},
      {"measurement": "Fold Change", "setting": "Gene F26G1.7, Affy_ID 172882_x_at", "value": 0.2384},
      {"measurement": "Fold Change", "setting": "Gene F28H7.3, Affy_ID 187996_s_at", "value": 0.2413},
      {"measurement": "Fold Change", "setting": "Gene F32B6.6, Affy_ID 172854_x_at", "value": 0.2584},
      {"measurement": "Fold Change", "setting": "Gene F32G8.6, Affy_ID 190591_at", "value": 0.2447},
      {"measurement": "Fold Change", "setting": "Gene F36D3.9, Affy_ID 189469_at", "value": 0.0313},
      {"measurement": "Fold Change", "setting": "Gene F36H12.7, Affy_ID 172857_x_at", "value": 0.2238},
      {"measurement": "Fold Change", "setting": "Gene F37A8.4, Affy_ID 188068_at", "value": 0.08741},
      {"measurement": "Fold Change", "setting": "Gene F38A3.1, Affy_ID 188281_s_at", "value": 0.2113},
      {"measurement": "Fold Change", "setting": "Gene F38E9.1, Affy_ID 180768_at", "value": 0.4693},
      {"measurement": "Fold Change", "setting": "Gene F38E11.2, Affy_ID 192323_at", "value": 0.1638},
      {"measurement": "Fold Change", "setting": "Gene F43C11.7, Affy_ID 186263_at", "value": 0.4148},
      {"measurement": "Fold Change", "setting": "Gene F44C8.3, Affy_ID 192777_at", "value": 0.4925},
      {"measurement": "Fold Change", "setting": "Gene F44C8.8, Affy_ID 189999_at", "value": 0.2454},
      {"measurement": "Fold Change", "setting": "Gene F44D12.5, Affy_ID 172333_x_at", "value": 0.211},
      {"measurement": "Fold Change", "setting": "Gene F44D12.7, Affy_ID 172327_x_at", "value": 0.152},
      {"measurement": "Fold Change", "setting": "Gene F45D11.15, Affy_ID 186801_s_at", "value": 0.1969},
      {"measurement": "Fold Change", "setting": "Gene F45E4.8, Affy_ID 183438_s_at", "value": 0.2476},
      {"measurement": "Fold Change", "setting": "Gene F47B10.2, Affy_ID 191301_s_at", "value": 0.1971},
      {"measurement": "Fold Change", "setting": "Gene F48G7.10, Affy_ID 184636_at", "value": 0.1582},
      {"measurement": "Fold Change", "setting": "Gene F49E12.10, Affy_ID 190009_at", "value": 0.04402},
      {"measurement": "Fold Change", "setting": "Gene F53A9.6, Affy_ID 172363_x_at", "value": 0.3136},
      {"measurement": "Fold Change", "setting": "Gene F53A9.8, Affy_ID 180612_s_at", "value": 0.3321},
      {"measurement": "Fold Change", "setting": "Gene F53F4.13, Affy_ID 182491_at", "value": 0.2444},
      {"measurement": "Fold Change", "setting": "Gene F55F3.2, Affy_ID 189534_at", "value": 0.3483},
      {"measurement": "Fold Change", "setting": "Gene F55G1.3, Affy_ID 172702_x_at", "value": 0.4912},
      {"measurement": "Fold Change", "setting": "Gene F58A4.7, Affy_ID 192781_s_at", "value": 0.3315},
      {"measurement": "Fold Change", "setting": "Gene F58A6.8, Affy_ID 172889_x_at", "value": 0.2177},
      {"measurement": "Fold Change", "setting": "Gene F58A6.9, Affy_ID 172743_x_at", "value": 0.323},
      {"measurement": "Fold Change", "setting": "Gene F58B3.1, Affy_ID 178236_s_at", "value": 0.331},
      {"measurement": "Fold Change", "setting": "Gene F59B2.5, Affy_ID 187071_at", "value": 0.4503},
      {"measurement": "Fold Change", "setting": "Gene H02I12.6, Affy_ID 172891_x_at", "value": 0.4283},
      {"measurement": "Fold Change", "setting": "Gene H12D21.1, Affy_ID 172431_x_at", "value": 0.2562},
      {"measurement": "Fold Change", "setting": "Gene K02D7.1, Affy_ID 189003_s_at", "value": 0.4538},
      {"measurement": "Fold Change", "setting": "Gene K03H6.2, Affy_ID 183309_at", "value": 0.4008},
      {"measurement": "Fold Change", "setting": "Gene K05F1.2, Affy_ID 172815_x_at", "value": 0.267},
      {"measurement": "Fold Change", "setting": "Gene K05F1.7, Affy_ID 172904_x_at", "value": 0.2034},
      {"measurement": "Fold Change", "setting": "Gene K07E8.3, Affy_ID 180256_at", "value": 0.02279},
      {"measurement": "Fold Change", "setting": "Gene K07F5.1, Affy_ID 172893_x_at", "value": 0.2218},
      {"measurement": "Fold Change", "setting": "Gene K07F5.2, Affy_ID 172852_x_at", "value": 0.2489},
      {"measurement": "Fold Change", "setting": "Gene K07F5.3, Affy_ID 172907_x_at", "value": 0.2798},
      {"measurement": "Fold Change", "setting": "Gene K07F5.5, Affy_ID 172245_x_at", "value": 0.3024},
      {"measurement": "Fold Change", "setting": "Gene K08F4.8, Affy_ID 172934_x_at", "value": 0.2351},
      {"measurement": "Fold Change", "setting": "Gene K08H2.8, Affy_ID 192460_at", "value": 0.4851},
      {"measurement": "Fold Change", "setting": "Gene M01D7.5, Affy_ID 173242_s_at", "value": 0.2522},
      {"measurement": "Fold Change", "setting": "Gene M05D6.7, Affy_ID 193914_at", "value": 0.2866},
      {"measurement": "Fold Change", "setting": "Gene M18.1, Affy_ID 173632_s_at", "value": 0.2086},
      {"measurement": "Fold Change", "setting": "Gene M163.1, Affy_ID 177298_at", "value": 0.4015}
    ]}
  ]
}
